The values below come from paper PMC7819943, “Rice protein-binding microarrays: a tool to detect cis-acting elements near promoter regions in rice”.

This is one part of the list.

The target in this experiment is T1, OsSMF1 (Oryza sativa, UniProt Q6ZLB0 1-436).
T1 sequence: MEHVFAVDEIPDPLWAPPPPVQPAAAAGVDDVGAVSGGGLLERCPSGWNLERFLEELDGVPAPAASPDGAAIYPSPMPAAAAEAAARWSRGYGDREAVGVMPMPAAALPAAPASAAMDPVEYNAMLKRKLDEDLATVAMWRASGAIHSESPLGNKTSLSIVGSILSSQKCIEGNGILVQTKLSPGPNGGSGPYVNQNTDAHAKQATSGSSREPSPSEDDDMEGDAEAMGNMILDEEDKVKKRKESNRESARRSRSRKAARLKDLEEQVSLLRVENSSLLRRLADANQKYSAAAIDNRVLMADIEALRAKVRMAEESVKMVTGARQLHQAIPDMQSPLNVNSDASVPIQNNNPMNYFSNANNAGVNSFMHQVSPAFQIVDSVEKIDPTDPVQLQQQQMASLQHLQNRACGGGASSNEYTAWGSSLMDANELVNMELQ
The experiment is described as follows: protein-binding microarray (RPBM); PBS, 2% BSA, 51.3 ng/ul salmon testes DNA, 50 uM zinc acetate, 200 nM TF, 25 C, 1 h; high values mean tight binding. The settings on record: protein: recombinant; tags: N-terminal polyhistidine and DsRed monomer fusion (pET32a); chain copies: 2; label: CyDye5-dUTP incorporated in the synthesized complementary strand; 3' TTTTT single-stranded linker to array surface; dsDNA, one strand shown. A digest of the protocol:
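The binding signal for each feature is its fluorescence intensity in arbitrary units. An Axon 4000B scanner was used to read a custom Agilent array that had been made double-stranded with Cy5-dUTP primer extension, blocked with 2% BSA, incubated at 25 °C for 1 h with 200 nM protein in PBS, 2% BSA, salmon testes DNA and 50 µM zinc acetate, and washed. The protein was an N-terminal polyhistidine–DsRed transcription factor fusion from E. coli BL21-CodonPlus, purified on Ni–NTA.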
Take “GGAGTGGAATCCAATGCGGGTGGCGTCCAGTGAGACGTGGCGGAGTCACCTAGTGCAG”: the binding signal is 4780 fluorescence intensity (a.u.).
As for “CTATAACATCGCATGACACTATTTGCTTTATTTATTTATTCGGAGTCACCTAGTGCAG”, the binding signal was 3720 fluorescence intensity (a.u.).
“TTGCATACCAGTTTAGTCAAACGAATTTATCTTAGTTTAACGGAGTCACCTAGTGCAG”: the binding signal was 19400 fluorescence intensity (a.u.).
On to “AGCACCACCACCACCACCCTCTCCCTGCACGTCACGAAGCCGGAGTCACCTAGTGCAG”, for which the binding signal was 5580 fluorescence intensity (a.u.).
The value for “GGCGTGGTGCTATGTTTGGTGATCATTTTGCCAGTCTGTCCGGAGTCACCTAGTGCAG” was 3170 fluorescence intensity (a.u.); that for “GAGCCCTACGTCGCCGCCCACAACGTGATACTCTCCCACGCGGAGTCACCTAGTGCAG” was 3530 fluorescence intensity (a.u.).
With “ATTCAGGCTGAGGCATGTGATGACGGGAATTCGGATACTGCGGAGTCACCTAGTGCAG”, the binding signal was 3370 fluorescence intensity (a.u.).
In the case of “TTCGTCTCCGATCGATGCCTCGCCTGACTCGCATGAGGGGCGGAGTCACCTAGTGCAG”, the binding signal is 3210 fluorescence intensity (a.u.).
In the case of “GGAGGACTGACCTGACGCTGGCCCCTGCCACGTGGCGGTGCGGAGTCACCTAGTGCAG” it was 34800 fluorescence intensity (a.u.).
In the case of “GTGATACATGCTGACGTCTTATTTGATATGCCATAAATATCGGAGTCACCTAGTGCAG” it was 6270 fluorescence intensity (a.u.); in that of “TACACGCTGACGCAACACACGAGCGTACGCACATAATCACCGGAGTCACCTAGTGCAG”, 5440 fluorescence intensity (a.u.); in that of “CCAGCGGATGAACGTGACGCGACCTCCAACCACAAGCCTCCGGAGTCACCTAGTGCAG”, 4330 fluorescence intensity (a.u.).
Take “CGCAGCGGCCGACCTTGTCGGTAGTCATGATGGCGACGAACGGAGTCACCTAGTGCAG”: the binding signal is 3680 fluorescence intensity (a.u.).
As for “CCCAGTCCACGTACGTGGGGCTAGGTCTATAGACCTGGATCGGAGTCACCTAGTGCAG”, the binding signal was 7240 fluorescence intensity (a.u.).
In the case of “ATATAAGCCGCTGCGAGTGTGGTCATCAGTGGTGAGAGTGCGGAGTCACCTAGTGCAG”, the binding signal is 26800 fluorescence intensity (a.u.).
Regarding “CCGCCGTGTGACACTGACACCCTGACCCACCAGTGGGGCCCGGAGTCACCTAGTGCAG”, the binding signal is 4310 fluorescence intensity (a.u.).
On to “GGATATGTATAACAATGTGGGTCAGCAATATTGAACTATGCGGAGTCACCTAGTGCAG”, for which the binding signal is 3650 fluorescence intensity (a.u.).
In the case of “AATCGCCGCCCGCCACGTGTCGCCTTCCCTTGCACGCCATCGGAGTCACCTAGTGCAG”, the binding signal is 17400 fluorescence intensity (a.u.).
“TGATGGTAATGGCATGACACTTAGGTTGTTATTTCTATTTCGGAGTCACCTAGTGCAG”: the binding signal is 3170 fluorescence intensity (a.u.).
The value for “TGTTCATTTTGAATATCTGTACATACTGCTGGGTTATGACCGGAGTCACCTAGTGCAG” was 3440 fluorescence intensity (a.u.).
As to “TGCTGTGGTGTGGTGTGGTGTGAATTTTGTTGATTGGTCGCGGAGTCACCTAGTGCAG”, the binding signal was 3980 fluorescence intensity (a.u.).
In the case of “CCCTCTCCTCTCTGTCGCCTCGCCACCACCATAGCTAATCCGGAGTCACCTAGTGCAG” it was 3150 fluorescence intensity (a.u.); in that of “AGTCTCAGATCTACTTGCGGCGGCGAAGGCTCGGGAGGGGCGGAGTCACCTAGTGCAG”, 3530 fluorescence intensity (a.u.).
In the case of “GGCCTTGCCACGAGCCCACGAGAGGTTTGGTTGATGGGCCCGGAGTCACCTAGTGCAG” it was 46500 fluorescence intensity (a.u.).
Take “CTTCAGTCCCGGTTGGTAAGGCTCAGCCGGCCACGTGGCTCGGAGTCACCTAGTGCAG”: the binding signal is 17200 fluorescence intensity (a.u.).
On to “ACATACATCATTACCGAATTTGTTGTCATCAGAATTGCATCGGAGTCACCTAGTGCAG”, for which the binding signal is 3480 fluorescence intensity (a.u.).
Turning to “CCTGACCAAGCGGTTCGGCCGCAGCCACAGCCGCAGCGAACGGAGTCACCTAGTGCAG”, the binding signal was 3190 fluorescence intensity (a.u.).
In the case of “CCGCATTTTAATGTATGACGTCATTGACTTTTCGATCAACCGGAGTCACCTAGTGCAG” it was 16500 fluorescence intensity (a.u.); in that of “CCAACACCATCGCATGAGTCATTTGTAGGGGCTTTTGCGCCGGAGTCACCTAGTGCAG”, 3650 fluorescence intensity (a.u.).
For “TTGCGTCGTACTATCATTGCATGTGATAAGCTGTACAGTGCGGAGTCACCTAGTGCAG”, the binding signal is 3380 fluorescence intensity (a.u.).
In the case of “CAATTGCATGTCGTCATTACCTCTTCATCAGCAGGATTGGCGGAGTCACCTAGTGCAG”, the binding signal was 3990 fluorescence intensity (a.u.).
The value for “GATGCATGCCTTCTTGTCTGTCATACGTCTCGTGCAATCGCGGAGTCACCTAGTGCAG” was 3990 fluorescence intensity (a.u.); that for “CTGGACACGGAGGCCGCGGCGGCGGCGGTGGCGTGGGAAGCGGAGTCACCTAGTGCAG” was 3160 fluorescence intensity (a.u.); that for “ACCATCTCTCTCTCTCTCTCTGCATGCATATCTTCTCCTCCGGAGTCACCTAGTGCAG” was 3210 fluorescence intensity (a.u.).
With “AGTAGCAAAACCTGTTTGTAGAGGAAATTATTATAGTGTTCGGAGTCACCTAGTGCAG”, the binding signal was 53700 fluorescence intensity (a.u.).
On to “TATAAGAGCAAGTTTAATAGTATAGCCAACTACTAGCTCCCGGAGTCACCTAGTGCAG”, for which the binding signal is 11300 fluorescence intensity (a.u.).
With “CTTTTGTCATTTCAACAGAATGATGATGACTTCACACCGTCGGAGTCACCTAGTGCAG”, the binding signal was 4620 fluorescence intensity (a.u.).
With “CGTGTCATTGTCCAAAATGTCAAAGAAATATGGAACCGGACGGAGTCACCTAGTGCAG”, the binding signal was 15200 fluorescence intensity (a.u.).
The value for “TGGGCTGGGTGAGGGAGATGACCGCGATGGACGAAAGCGTCGGAGTCACCTAGTGCAG” was 3170 fluorescence intensity (a.u.); that for “AGGGTACTAGCGGAGTAGACAAGCTGGCATATATATGATGCGGAGTCACCTAGTGCAG” was 3400 fluorescence intensity (a.u.).
Take “AATCAAATCTTAGCGATGTAGTGAAACAGGTCAGACGGAACGGAGTCACCTAGTGCAG”: the binding signal is 3600 fluorescence intensity (a.u.).
Take “CACCTCTGCGCCCCTCGTCGCACCACCACCACCGAGTCATCGGAGTCACCTAGTGCAG”: the binding signal is 4120 fluorescence intensity (a.u.).
For “AAATTGCGACACCTGTCCAGGGTGGCCCTACTTAATTACGCGGAGTCACCTAGTGCAG”, the binding signal was 3790 fluorescence intensity (a.u.).
Take “AAGGGAGAGGATGGGATGACGTGGCATCCTAACATGTGGGCGGAGTCACCTAGTGCAG”: the binding signal was 27600 fluorescence intensity (a.u.).
With “CAAGTTGATTGCGATGAGTTGTACAAAATTCCACACAAATCGGAGTCACCTAGTGCAG”, the binding signal is 3250 fluorescence intensity (a.u.).
In the case of “ATATGGGGCCACGCTGTACAGCCACGTAGGACGGTCAATCCGGAGTCACCTAGTGCAG”, the binding signal was 13700 fluorescence intensity (a.u.).
For “TCGTCGTCGGCGACGAGGACAACTGCGGCGGCGGCGGCGGCGGAGTCACCTAGTGCAG”, the binding signal is 3290 fluorescence intensity (a.u.).
On to “GGTGGCTAGCGTCCTCCTCCTCTTCTACGTGGCGGCGGCCCGGAGTCACCTAGTGCAG”, for which the binding signal was 3690 fluorescence intensity (a.u.).
For the sequence “AGAATATATTACTCGCCTTTTGACCTGTCCAACACAGTTGCGGAGTCACCTAGTGCAG”, the binding signal is 3350 fluorescence intensity (a.u.).
Consider “GACAGAGATCTCTACACACCTGGATGCGCCTCGATCAGAACGGAGTCACCTAGTGCAG”, for which the binding signal was 3330 fluorescence intensity (a.u.).
“CCAAGAGGTTGGACCTCTTGCTAACTTTCCTCCAAAATCTCGGAGTCACCTAGTGCAG”: the binding signal is 11300 fluorescence intensity (a.u.).
“AGAGGTGACCTCGGATAACGTGTAAAATCCGTGACACCTCCGGAGTCACCTAGTGCAG”: the binding signal is 4960 fluorescence intensity (a.u.).
For “AATTCTAATTTATATGGTAGATTTTAAAAGTTAAATTGGACGGAGTCACCTAGTGCAG”, the binding signal was 31700 fluorescence intensity (a.u.).
“AGTAGAAATATAGCATTGCACACGTCTTCCGTACAAAGATCGGAGTCACCTAGTGCAG”: the binding signal was 5700 fluorescence intensity (a.u.).
